No constants are given. Whether binding was seen depends on the method and setting. Some results given as binding are weak or reduced against the parent protein; the word gives no strength.
Legend:
[1] = biological target: VDAC1 on the surface of human umbilical vein endothelial cells (HUVEC) (human) (UniProt P21796); assay: competition with 125I-K5 (100 nM) on HUVEC
[2] = biological target: VDAC1 on the surface of human umbilical vein endothelial cells (HUVEC) (human) (UniProt P21796); assay: FACS on HUVEC; blocking of anti-SK-peptide IgG

Amino acid sequences for entries named in this document (tags omitted). A change or cut given only in a name is not applied to a line headed by its entry. Residues count along the entry.
UniProt P21796: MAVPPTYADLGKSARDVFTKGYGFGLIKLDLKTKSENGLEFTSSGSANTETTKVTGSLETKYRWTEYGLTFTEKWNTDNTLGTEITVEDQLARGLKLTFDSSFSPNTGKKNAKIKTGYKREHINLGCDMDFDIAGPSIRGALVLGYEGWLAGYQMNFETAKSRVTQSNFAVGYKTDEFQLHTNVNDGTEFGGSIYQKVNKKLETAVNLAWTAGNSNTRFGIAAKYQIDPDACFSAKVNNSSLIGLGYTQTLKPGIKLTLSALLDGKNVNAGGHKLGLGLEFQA
UniProt P00747, residues 462-810: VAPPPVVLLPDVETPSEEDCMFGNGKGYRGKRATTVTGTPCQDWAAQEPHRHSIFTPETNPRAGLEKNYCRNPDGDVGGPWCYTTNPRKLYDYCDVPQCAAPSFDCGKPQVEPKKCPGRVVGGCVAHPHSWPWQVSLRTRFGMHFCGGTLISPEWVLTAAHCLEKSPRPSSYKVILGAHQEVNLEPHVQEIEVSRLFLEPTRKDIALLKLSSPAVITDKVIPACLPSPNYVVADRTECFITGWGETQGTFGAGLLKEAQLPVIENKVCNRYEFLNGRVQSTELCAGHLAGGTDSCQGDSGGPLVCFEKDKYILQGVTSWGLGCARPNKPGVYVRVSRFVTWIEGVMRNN

binding [1]: binds
binding [2]: binds
Substance: mini-Pg, a K5 containing plasminogen fragment (from UniProt P00747 462-810) (ligand)

— patent US20040096444A1 (DUKE UNIVERSITY, published 2004)
